Values quoted from earlier work in patent publication US9801907B2, “Film-coated and/or granulated calcium-containing compounds and use therof in pharmaceutical compositions” (Takeda Nycomed AS, priority 2005, dated 2017).

Settings: sucrose as comparison

Compound | sweetening effect (compared to sucrose)
OC[C@@H](O)[C@@H](O[C@H]1O[C@H](CO)[C@@H](O)[C@H](O)[C@H]1O)[C@H](O)[C@@H](O)CO [Maltitol] | ≥ 1
OC[C@@H](O)[C@H](O)[C@@H](O)CO [Xylitol] | 1
OC[C@@H](O)[C@@H](O)[C@H](O)[C@@H](O)CO [Sorbitol] | 0.55
Isomalt | > 0.5
